Data on one substance can be found in paper PMC11237027.

The chains behind the UniProt entries cited, without tags or fusion partners. Where a name states a change or a piece, a line headed by the entry shows the natural chain unless it says otherwise.
UniProt Q93VJ2: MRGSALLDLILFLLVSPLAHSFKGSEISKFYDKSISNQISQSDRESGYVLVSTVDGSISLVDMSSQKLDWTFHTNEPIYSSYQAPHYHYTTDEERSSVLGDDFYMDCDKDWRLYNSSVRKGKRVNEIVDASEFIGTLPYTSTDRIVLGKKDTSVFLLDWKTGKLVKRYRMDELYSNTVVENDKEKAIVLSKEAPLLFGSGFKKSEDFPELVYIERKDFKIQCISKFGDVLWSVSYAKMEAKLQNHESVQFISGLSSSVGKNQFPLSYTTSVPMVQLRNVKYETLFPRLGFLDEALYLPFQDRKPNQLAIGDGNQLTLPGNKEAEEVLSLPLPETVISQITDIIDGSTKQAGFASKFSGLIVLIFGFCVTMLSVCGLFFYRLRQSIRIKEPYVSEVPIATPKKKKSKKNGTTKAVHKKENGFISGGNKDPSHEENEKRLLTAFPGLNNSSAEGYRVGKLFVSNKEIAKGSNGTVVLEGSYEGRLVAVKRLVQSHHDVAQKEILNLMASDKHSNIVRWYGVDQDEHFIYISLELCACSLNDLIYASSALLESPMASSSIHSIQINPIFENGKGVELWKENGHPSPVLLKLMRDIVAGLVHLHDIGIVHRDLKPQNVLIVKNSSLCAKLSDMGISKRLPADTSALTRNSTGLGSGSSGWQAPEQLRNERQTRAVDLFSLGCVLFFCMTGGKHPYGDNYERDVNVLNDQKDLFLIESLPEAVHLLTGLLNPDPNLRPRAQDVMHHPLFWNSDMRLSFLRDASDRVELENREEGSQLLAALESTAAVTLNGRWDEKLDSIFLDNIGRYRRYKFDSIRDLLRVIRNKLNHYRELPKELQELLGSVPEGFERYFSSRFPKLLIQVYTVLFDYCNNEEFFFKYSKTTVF

Where a chain is given by its changes, count along the chain named. Results are given in words; binding and its absence hold for the method and conditions named. In cells and extracts the contact can be indirect. For some assays here: A result given as binding can be weak or reduced; the word gives no strength. Tags and fused reporters may be left off the sequences shown.

Experiment [1] has as its target T1, BAP2N67S (Est-0 allele of BAP2) fused to GST at the N-terminus (Arabidopsis thaliana) (UniProt Q58FX0).
T1 sequence: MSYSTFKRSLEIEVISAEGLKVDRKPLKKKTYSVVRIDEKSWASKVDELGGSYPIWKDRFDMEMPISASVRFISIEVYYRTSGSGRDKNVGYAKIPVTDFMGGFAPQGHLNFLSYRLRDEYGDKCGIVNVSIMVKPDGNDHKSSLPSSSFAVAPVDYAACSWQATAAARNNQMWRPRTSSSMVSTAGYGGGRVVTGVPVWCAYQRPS
As to the kind of experiment: pull-down; GST fusions from E. coli extracts bound to glutathione agarose (30 min on ice), then incubated with E. coli protein extracts of the His-tagged proteins; equilibration buffer 125 mM Tris-HCl, 150 mM sodium chloride, pH 8.0; Western blot with anti-His and anti-GST; only the target purified.

The target in experiment [2] is T2, BON-ASSOCIATED PROTEIN2 (BAP2) fused to GST at the N-terminus (Arabidopsis thaliana) (UniProt Q58FX0).
T2 sequence: T1 sequence with S67N
The experiment is described as above.

In the case of “cytosolic region of IRE1B fused to a His6x-Tag at the C-terminal (from UniProt Q93VJ2) (domain or fragment)”, the binding result in experiment [1] is “no binding”; in experiment [2] it was “binds”.
